Assay results from PMC4521966.

T1: C-terminal FLAG-tagged mouse WDR72 (WD repeat-containing protein 72) (mouse) (UniProt D3YYM4)
T1 sequence: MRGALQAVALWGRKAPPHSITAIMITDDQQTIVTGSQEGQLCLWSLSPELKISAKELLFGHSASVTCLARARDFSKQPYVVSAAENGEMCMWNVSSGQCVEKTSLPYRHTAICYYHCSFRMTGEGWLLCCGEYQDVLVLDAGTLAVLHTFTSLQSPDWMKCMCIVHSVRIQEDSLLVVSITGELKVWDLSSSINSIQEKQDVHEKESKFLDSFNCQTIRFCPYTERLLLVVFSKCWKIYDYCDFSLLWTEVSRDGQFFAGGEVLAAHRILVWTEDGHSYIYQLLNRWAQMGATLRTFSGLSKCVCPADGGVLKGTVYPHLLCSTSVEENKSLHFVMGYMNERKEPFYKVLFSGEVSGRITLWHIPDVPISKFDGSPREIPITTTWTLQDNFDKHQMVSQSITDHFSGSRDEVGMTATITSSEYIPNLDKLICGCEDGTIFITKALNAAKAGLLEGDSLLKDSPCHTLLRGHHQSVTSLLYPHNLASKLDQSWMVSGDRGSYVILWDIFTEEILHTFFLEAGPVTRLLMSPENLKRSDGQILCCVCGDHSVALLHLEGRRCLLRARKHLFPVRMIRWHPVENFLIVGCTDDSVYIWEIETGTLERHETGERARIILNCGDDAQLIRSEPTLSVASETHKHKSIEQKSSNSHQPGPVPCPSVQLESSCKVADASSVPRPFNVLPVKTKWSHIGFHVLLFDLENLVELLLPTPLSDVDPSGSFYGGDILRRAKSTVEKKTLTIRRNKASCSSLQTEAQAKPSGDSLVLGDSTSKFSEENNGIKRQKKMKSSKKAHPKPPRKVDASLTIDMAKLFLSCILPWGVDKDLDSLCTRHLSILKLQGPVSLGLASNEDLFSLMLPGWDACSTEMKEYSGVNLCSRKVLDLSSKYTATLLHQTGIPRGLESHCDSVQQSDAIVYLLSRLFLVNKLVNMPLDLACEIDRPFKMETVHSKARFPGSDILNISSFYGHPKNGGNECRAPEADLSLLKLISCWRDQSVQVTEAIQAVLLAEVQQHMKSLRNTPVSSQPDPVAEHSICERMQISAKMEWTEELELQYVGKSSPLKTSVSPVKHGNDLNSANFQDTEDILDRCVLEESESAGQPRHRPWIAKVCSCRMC

B1: AQR (protein, UniProt O60306 1-1485)
chain: MAAPAQPKKIVAPTVSQINAEFVTQLACKYWAPHIKKKSPFDIKVIEDIYEKEIVKSRFAIRKIMLLEFSQYLENYLWMNYSPEVSSKAYLMSICCMVNEKFRENVPAWEIFKKKPDHFPFFFKHILKAALAETDGEFSLHEQTVLLLFLDHCFNSLEVDLIRSQVQQLISLPMWMGLQLARLELELKKTPKLRKFWNLIKKNDEKMDPEAREQAYQERRFLSQLIQKFISVLKSVPLSEPVTMDKVHYCERFIELMIDLEALLPTRRWFNTILDDSHLLVHCYLSNLVRREEDGHLFSQLLDMLKFYTGFEINDQTGNALTENEMTTIHYDRITSLQRAAFAHFPELYDFALSNVAEVDTRESLVKFFGPLSSNTLHQVASYLCLLPTLPKNEDTTFDKEFLLELLVSRHERRISQIQQLNQMPLYPTEKIIWDENIVPTEYYSGEGCLALPKLNLQFLTLHDYLLRNFNLFRLESTYEIRQDIEDSVSRMKPWQSEYGGVVFGGWARMAQPIVAFTVVEVAKPNIGENWPTRVRADVTINLNVRDHIKDEWEGLRKHDVCFLITVRPTKPYGTKFDRRRPFIEQVGLVYVRGCEIQGMLDDKGRVIEDGPEPRPNLRGESRTFRVFLDPNQYQQDMTNTIQNGAEDVYETFNIIMRRKPKENNFKAVLETIRNLMNTDCVVPDWLHDIILGYGDPSSAHYSKMPNQIATLDFNDTFLSIEHLKASFPGHNVKVTVEDPALQIPPFRITFPVRSGKGKKRKDADVEDEDTEEAKTLIVEPHVIPNRGPYPYNQPKRNTIQFTHTQIEAIRAGMQPGLTMVVGPPGTGKTDVAVQIISNIYHNFPEQRTLIVTHSNQALNQLFEKIMALDIDERHLLRLGHGEEELETEKDFSRYGRVNYVLARRIELLEEVKRLQKSLGVPGDASYTCETAGYFFLYQVMSRWEEYISKVKNKGSTLPDVTEVSTFFPFHEYFANAPQPIFKGRSYEEDMEIAEGCFRHIKKIFTQLEEFRASELLRSGLDRSKYLLVKEAKIIAMTCTHAALKRHDLVKLGFKYDNILMEEAAQILEIETFIPLLLQNPQDGFSRLKRWIMIGDHHQLPPVIKNMAFQKYSNMEQSLFTRFVRVGVPTVDLDAQGRARASLCNLYNWRYKNLGNLPHVQLLPEFSTANAGLLYDFQLINVEDFQGVGESEPNPYFYQNLGEAEYVVALFMYMCLLGYPADKISILTTYNGQKHLIRDIINRRCGNNPLIGRPNKVTTVDRFQGQQNDYILLSLVRTRAVGHLRDVRRLVVAMSRARLGLYIFARVSLFQNCFELTPAFSQLTARPLHLHIIPTEPFPTTRKNGERPSHEVQIIKNMPQMANFVYNMYMHLIQTTHHYHQTLLQLPPAMVEEGEEVQNQETELETEEEAMTVQADIIPSPTDTSCRQETPAFQTDTTPSETGATSTPEAIPALSETTPTVVGAVSAPAEANTPQDATSAPEETK
B2: CDC40 (protein, UniProt O60508 1-579)
chain: MSAAIAALAASYGSGSGSESDSDSESSRCPLPAADSLMHLTKSPSSKPSLAVAVDSAPEVAVKEDLETGVHLDPAVKEVQYNPTYETMFAPEFGPENPFRTQQMAAPRNMLSGYAEPAHINDFMFEQQRRTFATYGYALDPSLDNHQVSAKYIGSVEEAEKNQGLTVFETGQKKTEKRKKFKENDASNIDGFLGPWAKYVDEKDVAKPSEEEQKELDEITAKRQKKGKQEEEKPGEEKTILHVKEMYDYQGRSYLHIPQDVGVNLRSTMPPEKCYLPKKQIHVWSGHTKGVSAVRLFPLSGHLLLSCSMDCKIKLWEVYGERRCLRTFIGHSKAVRDICFNTAGTQFLSAAYDRYLKLWDTETGQCISRFTNRKVPYCVKFNPDEDKQNLFVAGMSDKKIVQWDIRSGEIVQEYDRHLGAVNTIVFVDENRRFVSTSDDKSLRVWEWDIPVDFKYIAEPSMHSMPAVTLSPNGKWLACQSMDNQILIFGAQNRFRLNKKKIFKGHMVAGYACQVDFSPDMSYVISGDGNGKLNIWDWKTTKLYSRFKAHDKVCIGAVWHPHETSKVITCGWDGLIKLWD
B3: ACIN1 (protein, UniProt Q9UKV3 1-1341)
chain: MWRRKHPRTSGGTRGVLSGNRGVEYGSGRGHLGTFEGRWRKLPKMPEAVGTDPSTSRKMAELEEVTLDGKPLQALRVTDLKAALEQRGLAKSGQKSALVKRLKGALMLENLQKHSTPHAAFQPNSQIGEEMSQNSFIKQYLEKQQELLRQRLEREAREAAELEEASAESEDEMIHPEGVASLLPPDFQSSLERPELELSRHSPRKSSSISEEKGDSDDEKPRKGERRSSRVRQARAAKLSEGSQPAEEEEDQETPSRNLRVRADRNLKTEEEEEEEEEEEEDDEEEEGDDEGQKSREAPILKEFKEEGEEIPRVKPEEMMDERPKTRSQEQEVLERGGRFTRSQEEARKSHLARQQQEKEMKTTSPLEEEEREIKSSQGLKEKSKSPSPPRLTEDRKKASLVALPEQTASEEETPPPLLTKEASSPPPHPQLHSEEEIEPMEGPAPAVLIQLSPPNTDADTRELLVSQHTVQLVGGLSPLSSPSDTKAESPAEKVPEESVLPLVQKSTLADYSAQKDLEPESDRSAQPLPLKIEELALAKGITEECLKQPSLEQKEGRRASHTLLPSHRLKQSADSSSSRSSSSSSSSSRSRSRSPDSSGSRSHSPLRSKQRDVAQARTHANPRGRPKMGSRSTSESRSRSRSRSRSASSNSRKSLSPGVSRDSSTSYTETKDPSSGQEVATPPVPQLQVCEPKERTSTSSSSVQARRLSQPESAEKHVTQRLQPERGSPKKCEAEEAEPPAATQPQTSETQTSHLPESERIHHTVEEKEEVTMDTSENRPENDVPEPPMPIADQVSNDDRPEGSVEDEEKKESSLPKSFKRKISVVSATKGVPAGNSDTEGGQPGRKRRWGASTATTQKKPSISITTESLKSLIPDIKPLAGQEAVVDLHADDSRISEDETERNGDDGTHDKGLKICRTVTQVVPAEGQENGQREEEEEEKEPEAEPPVPPQVSVEVALPPPAEHEVKKVTLGDTLTRRSISQQKSGVSITIDDPVRTAQVPSPPRGKISNIVHISNLVRPFTLGQLKELLGRTGTLVEEAFWIDKIKSHCFVTYSTVEEAVATRTALHGVKWPQSNPKFLCADYAEQDELDYHRGLLVDRPSETKTEEQGIPRPLHPPPPPPVQPPQHPRAEQREQERAVREQWAEREREMERRERTRSEREWDRDKVREGPRSRSRSRDRRRKERAKSKEKKSEKKEKAQEEPPAKLLDDLFRKTKAAPCIYWLPLTDSQIVQKEAERAERAKEREKRRKEQEEEEQKEREKEAERERNRQLEREKRREHSRERDRERERERERDRGDRDRDRERDRERGRERDRRDTKRHSRSRSRSTPVRDRGGRR
B4: IARS (protein, UniProt P41252 1-1262)
chain: MLQQVPENINFPAEEEKILEFWTEFNCFQECLKQSKHKPKFTFYDGPPFATGLPHYGHILAGTIKDIVTRYAHQSGFHVDRRFGWDCHGLPVEYEIDKTLGIRGPEDVAKMGITEYNNQCRAIVMRYSAEWKSTVSRLGRWIDFDNDYKTLYPQFMESVWWVFKQLYDKGLVYRGVKVMPFSTACNTPLSNFESHQNYKDVQDPSVFVTFPLEEDETVSLVAWTTTPWTLPSNLAVCVNPEMQYVKIKDVARGRLLILMEARLSALYKLESDYEILERFPGAYLKGKKYRPLFDYFLKCKENGAFTVLVDNYVKEEEGTGVVHQAPYFGAEDYRVCMDFNIIRKDSLPVCPVDASGCFTTEVTDFAGQYVKDADKSIIRTLKEQGRLLVATTFTHSYPFCWRSDTPLIYKAVPSWFVRVENMVDQLLRNNDLCYWVPELVREKRFGNWLKDARDWTISRNRYWGTPIPLWVSDDFEEVVCIGSVAELEELSGAKISDLHRESVDHLTIPSRCGKGSLHRISEVFDCWFESGSMPYAQVHYPFENKREFEDAFPADFIAEGIDQTRGWFYTLLVLATALFGQPPFKNVIVNGLVLASDGQKMSKRKKNYPDPVSIIQKYGADALRLYLINSPVVRAENLRFKEEGVRDVLKDVLLPWYNAYRFLIQNVLRLQKEEEIEFLYNENTVRESPNITDRWILSFMQSLIGFFETEMAAYRLYTVVPRLVKFVDILTNWYVRMNRRRLKGENGMEDCVMALETLFSVLLSLCRLMAPYTPFLTELMYQNLKVLIDPVSVQDKDTLSIHYLMLPRVREELIDKKTESAVSQMQSVIELGRVIRDRKTIPIKYPLKEIVVIHQDPEALKDIKSLEKYIIEELNVRKVTLSTDKNKYGIRLRAEPDHMVLGKRLKGAFKAVMTSIKQLSSEELEQFQKTGTIVVEGHELHDEDIRLMYTFDQATGGTAQFEAHSDAQALVLLDVTPDQSMVDEGMAREVINRIQKLRKKCNLVPTDEITVYYKAKSEGTYLNSVIESHTEFIFTTIKAPLKPYPVSPSDKVLIQEKTQLKGSELEITLTRGSSLPGPACAYVNLNICANGSEQGGVLLLENPKGDNRLDLLKLKSVVTSIFGVKNTELAVFHDETEIQNQTDLLSLSGKTLCVTAGSAPSLINSSSTLLCQYINLQLLNAKPQECLMGTVGTLLLENPLGQNGLTHQGLLYEAAKVFGLRSRKLKLFLNETQTQEITEDIPVKTLNMKTVYVSVLPTTADF

Molecular target: T1, C-terminal FLAG-tagged mouse WDR72 (WD repeat-containing protein 72) (mouse)
Test: affinity purification with mass spectrometry; C-terminal FLAG-tagged mouse WDR72 overexpressed in HEK293; NP40 lysate; anti-FLAG antibody on protein A Dynabeads, 30 min at room temperature, washed twice; six CBB-stained bands cut from the SDS-PAGE gel, trypsin, LC-MS/MS

binding, binds:
B1
B2
B3
B4

These are yes or no findings as the source states them, for the method shown. Binding seen in cells or lysates may run through a third protein. A yes stands for co-enrichment or nearness to the bait. Other partners may have been found. Where a sequence is shown, tags or fusion partners need not be part of it.
